No constants are given. Whether binding was seen depends on the method and setting. Some entries that bind do so weakly or less than the wild type. Tags and fused reporters may be left off the sequences shown.

The chains behind the UniProt entries cited, without tags or fusion partners. Where a name states a change or a piece, a line headed by the entry shows the natural chain unless it says otherwise.
UniProt P17931: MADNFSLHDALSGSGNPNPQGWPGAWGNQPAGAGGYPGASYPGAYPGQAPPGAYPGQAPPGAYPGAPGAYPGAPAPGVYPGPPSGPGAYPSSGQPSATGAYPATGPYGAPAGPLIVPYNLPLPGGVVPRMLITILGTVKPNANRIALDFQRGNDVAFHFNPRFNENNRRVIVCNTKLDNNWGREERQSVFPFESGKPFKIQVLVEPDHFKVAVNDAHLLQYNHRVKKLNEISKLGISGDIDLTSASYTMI

This assay addresses human Galectin-3 (Gal3) (human) (UniProt P17931). Kind of assay: ELISA, FLAG-tagged GLUT on coated Gal3. A general note: ELISA stands for enzyme-linked immunosorbent assay.

B1: GLUT4 protein tagged with FLAG (protein, not shown: small tags and cut ends)
chain: MPSGFQQIGSEDGEPPQQRVTGTLVLAVFSAVLGSLQFGYNIGVINAPQKVIEQSYNETWLGRQGPEGPSSIPPGTLTTLWALSVAIFSVGGMISSFLIGIISQWLGRKRAMLVNNVLAVLGGSLMGLANAAASYEMLILGRFLIGAYSGLTSGLVPMYVGEIAPTHLRGALGTLNQLAIVIGILIAQVLGLESLLGTASLWPLLLGLTVLPALLQLVLLPFCPESPRYLYIIQNLEGPARKSLKRLTGWADVSGVLAELKDEKRKLERERPLSLLQLLGSRTHRQPLIIAVVLQLSQQLSGINAVFYYSTSIFETAGVGQPAYATIGAGVVNTVFTLVSVLLVERAGRRTLHLLGLAGMCGCAILMTVALLLLERVPAMSYVSIVAIFGFVAFFEIGPGPIPWFIVAELFSQGPRPAAMAVAGFSNWTSNFIIGMGFQYVAEAMGPYVFLLFAVLLLGFFIFTFLRVPETRGRTFDQISAAFHRTPSLLEQEVKPSTELEYLGPDEND
Regarding B1, the binding entry is reported as “binds”.

The values are drawn from US20220411514A1, “ANTI-GAL3 ANTIBODIES AND METHODS OF USE FOR INSULIN RESISTANCE” (TrueBinding, Inc., priority 2021, published 2022).
